Reference: PubChem BioAssay AID330 (DTP/NCI, 2004)
The list is a part of this screen's results and no random one: it is rich in T/C values a quarter to a half above the control, in often repeated tests (any T/C) and in doses without a T/C. Further doses and runs are listed elsewhere. T/C is the treated group as % of the vehicle group. Some entries give survivors of the animals treated and no T/C: the source holds a T/C of zero for them, seemingly a mark for toxic or unscored doses. Some survivor counts are full or nearly so, which does not show that the dose was tolerated: the source hardly ever lists a survival T/C far under the control, and the zero likely stands for such cases as well. Counts of survivors are from the toxicity check (mostly the fifth day) where no day follows; animals may have died later. Schedules are NCI's codes, read here as Q, the interval in days (D) or hours (H), X, the number of doses. Additions like (4×) say how often a value occurs here. Where survival is the endpoint, this PubChem deposit counts one and a half times the control or more as active, and values a quarter to a half above the control carry no call in these data; other NCI protocols may use other cut-offs. Some entries hold several experiments; the values are given in rising order. Some T/C values are followed by the survivors on the day toxicity was checked, most often the fifth; without a count, all were alive then.

System: P388 leukemia ip, CD2F1 mice, survival T/C
Assay: NCI In Vivo Anticancer Drug Screen. Data for tumor model P388 Leukemia (intraperitoneal) in CD2F1 (CDF1) mice
Settings: T/C endpoint: median survival time, higher T/C = longer survival
[1] = dose: 0.1 mg/kg/injection, schedule: Q01DX009 (ip), vehicle: water

Cc1c2oc3c(C)ccc(C(=O)N[C@@H]4C(=O)N[C@H](C(C)C)C(=O)N5CCC[C@H]5C(=O)N(C)CC(=O)N(C)[C@@H](C(C)C)C(=O)O[C@H]4C)c3nc-2c(C(=O)N[C@@H]2C(=O)N[C@H](C(C)C)C(=O)N3CCC[C@H]3C(=O)N(C)CC(=O)N(C)[C@@H](C(C)C)C(=O)O[C@H]2C)c(N)c1=O
T/C (dose: 0.01 mg/kg/injection, schedule: Q01DX009 (ip), vehicle: water, evaluated on day 5): 101, 156, 162 % of control | T/C (dose: 0.01 mg/kg/injection, schedule: Q01DX009 (ip), vehicle: water, evaluated on day 30): 136, 153, 157 % of control | T/C (dose: 0.01 mg/kg/injection, schedule: Q01DX009 (ip), vehicle: water, evaluated on day 43): 166 % of control | T/C (dose: 0.01 mg/kg/injection, schedule: Q01DX009 (ip), vehicle: water, evaluated on day 53): 162 % of control | T/C (dose: 0.01 mg/kg/injection, schedule: Q01DX009 (ip), vehicle: water, evaluated on day 67): 101 % of control | T/C (dose: 0.02 mg/kg/injection, schedule: Q01DX009 (ip), vehicle: water, evaluated on day 4): 211 % of control | T/C (dose: 0.02 mg/kg/injection, schedule: Q01DX009 (ip), vehicle: water, evaluated on day 5): 100, 151, 154, 166 (2×), 173, 180, 182, 191, 196, 207, 252 % of control | T/C (dose: 0.02 mg/kg/injection, schedule: Q01DX009 (ip), vehicle: water, evaluated on day 53): 180 % of control | T/C (dose: 0.02 mg/kg/injection, schedule: Q01DX009 (ip), vehicle: water, evaluated on day 67): 154 % of control | T/C (dose: 0.02 mg/kg/injection, schedule: Q01DX009 (ip), vehicle: water, evaluated on day 87): 196 % of control | T/C (dose: 0.02 mg/kg/injection, schedule: Q01DX009 (ip), vehicle: water, evaluated on day 90): 151 and 211 % of control | T/C (dose: 0.02 mg/kg/injection, schedule: Q01DX009 (ip), vehicle: water, evaluated on day 93): 182 % of control | T/C (dose: 0.02 mg/kg/injection, schedule: Q01DX009 (ip), vehicle: water, evaluated on day 94): 252 % of control | T/C (dose: 0.02 mg/kg/injection, schedule: Q01DX009 (ip), vehicle: water, evaluated on day 97): 207 % of control | T/C (dose: 0.03 mg/kg/injection, schedule: Q01DX009 (ip), vehicle: water, evaluated on day 4): 273 % of control | T/C (dose: 0.03 mg/kg/injection, schedule: Q01DX009 (ip), vehicle: water, evaluated on day 5): 142, 182, 184 (2×), 187, 197, 209, 227, 228, 239 % of control | T/C (dose: 0.03 mg/kg/injection, schedule: Q01DX009 (ip), vehicle: water, evaluated on day 30): 166, 181, 191, 230 % of control | T/C (dose: 0.03 mg/kg/injection, schedule: Q01DX009 (ip), vehicle: water, evaluated on day 43): 184 % of control | T/C (dose: 0.03 mg/kg/injection, schedule: Q01DX009 (ip), vehicle: water, evaluated on day 44): 142 % of control | T/C (dose: 0.03 mg/kg/injection, schedule: Q01DX009 (ip), vehicle: water, evaluated on day 53): 209 % of control | T/C (dose: 0.03 mg/kg/injection, schedule: Q01DX009 (ip), vehicle: water, evaluated on day 87): 239 % of control | T/C (dose: 0.03 mg/kg/injection, schedule: Q01DX009 (ip), vehicle: water, evaluated on day 90): 182 and 273 % of control | T/C (dose: 0.03 mg/kg/injection, schedule: Q01DX009 (ip), vehicle: water, evaluated on day 93): 228 % of control | T/C (dose: 0.03 mg/kg/injection, schedule: Q01DX009 (ip), vehicle: water, evaluated on day 97): 227 % of control | T/C (dose: 0.04 mg/kg/injection, schedule: Q01DX009 (ip), vehicle: water, evaluated on day 4): 255 % of control | T/C (dose: 0.04 mg/kg/injection, schedule: Q01DX009 (ip), vehicle: water, evaluated on day 5): 83, 118, 168, 184, 198, 200 (2×), 203, 210, 222, 234, 279 % of control | T/C (dose: 0.04 mg/kg/injection, schedule: Q01DX009 (ip), vehicle: water, evaluated on day 43): 176 % of control [7 of 8 alive] | T/C (dose: 0.04 mg/kg/injection, schedule: Q01DX009 (ip), vehicle: water, evaluated on day 44): 203 % of control | T/C (dose: 0.04 mg/kg/injection, schedule: Q01DX009 (ip), vehicle: water, evaluated on day 53): 234 % of control | T/C (dose: 0.04 mg/kg/injection, schedule: Q01DX009 (ip), vehicle: water, evaluated on day 67): 200 % of control | T/C (dose: 0.04 mg/kg/injection, schedule: Q01DX009 (ip), vehicle: water, evaluated on day 87): 222 % of control | T/C (dose: 0.04 mg/kg/injection, schedule: Q01DX009 (ip), vehicle: water, evaluated on day 90): 184 and 255 % of control | T/C (dose: 0.04 mg/kg/injection, schedule: Q01DX009 (ip), vehicle: water, evaluated on day 93): 210 % of control | T/C (dose: 0.04 mg/kg/injection, schedule: Q01DX009 (ip), vehicle: water, evaluated on day 97): 279 % of control | survivor count (dose: 0.04 mg/kg/injection, schedule: Q01DX009 (ip), vehicle: water): 8 of 8 | T/C (dose: 0.04 mg/kg/injection, schedule: Q04DX003 (ip), vehicle: saline): 137 % of control | T/C (dose: 0.05 mg/kg/injection, schedule: Q01DX009 (ip), vehicle: water, evaluated on day 4): 247 % of control | T/C (dose: 0.05 mg/kg/injection, schedule: Q01DX009 (ip), vehicle: water, evaluated on day 5): 81, 159, 176, 218, 225, 230, 237, 241, 290, 301, 307 % of control | T/C (dose: 0.05 mg/kg/injection, schedule: Q01DX009 (ip), vehicle: water, evaluated on day 30): 96, 160, 202, 216 % of control | T/C (dose: 0.05 mg/kg/injection, schedule: Q01DX009 (ip), vehicle: water, evaluated on day 44): 237 % of control | T/C (dose: 0.05 mg/kg/injection, schedule: Q01DX009 (ip), vehicle: water, evaluated on day 53): 241 % of control | T/C (dose: 0.05 mg/kg/injection, schedule: Q01DX009 (ip), vehicle: water, evaluated on day 87): 290 % of control | T/C (dose: 0.05 mg/kg/injection, schedule: Q01DX009 (ip), vehicle: water, evaluated on day 90): 218 and 247 % of control | T/C (dose: 0.05 mg/kg/injection, schedule: Q01DX009 (ip), vehicle: water, evaluated on day 93): 307 % of control | T/C (dose: 0.05 mg/kg/injection, schedule: Q01DX009 (ip), vehicle: water, evaluated on day 97): 225 % of control | survivor count (dose: 0.05 mg/kg/injection, schedule: Q01DX009 (ip), vehicle: water): 8 of 8 | T/C (dose: 0.06 mg/kg/injection, schedule: Q01DX009 (ip), vehicle: water, evaluated on day 4): 376 % of control | T/C (dose: 0.06 mg/kg/injection, schedule: Q01DX009 (ip), vehicle: water, evaluated on day 5): 70, 80, 97, 99, 111, 220, 221, 233, 271, 306, 350 % of control | T/C (dose: 0.06 mg/kg/injection, schedule: Q01DX009 (ip), vehicle: water, evaluated on day 44): 220 % of control | T/C (dose: 0.06 mg/kg/injection, schedule: Q01DX009 (ip), vehicle: water, evaluated on day 53): 306 % of control | T/C (dose: 0.06 mg/kg/injection, schedule: Q01DX009 (ip), vehicle: water, evaluated on day 87): 233 % of control | T/C (dose: 0.06 mg/kg/injection, schedule: Q01DX009 (ip), vehicle: water, evaluated on day 90): 111 and 376 % of control | T/C (dose: 0.06 mg/kg/injection, schedule: Q01DX009 (ip), vehicle: water, evaluated on day 93): 350 % of control | T/C (dose: 0.06 mg/kg/injection, schedule: Q01DX009 (ip), vehicle: water, evaluated on day 97): 99 % of control | survivor count (dose: 0.06 mg/kg/injection, schedule: Q01DX009 (ip), vehicle: water): 8 of 8 (2×) | T/C (dose: 0.06 mg/kg/injection, schedule: Q04DX003 (ip), vehicle: saline + alcohol): 141 % of control | T/C (dose: 0.08 mg/kg/injection, schedule: Q01DX009 (ip), vehicle: water, evaluated on day 5): 94, 99, 101 % of control | T/C (dose: 0.08 mg/kg/injection, schedule: Q01DX009 (ip), vehicle: water, evaluated on day 67): 101 % of control | T/C (dose: 0.08 mg/kg/injection, schedule: Q04DX003 (ip), vehicle: saline): 145 % of control | survivor count (dose: 0.09 mg/kg/injection, schedule: Q01DX009 (ip), vehicle: water): 7 of 8 | survivor count (dose: 0.1 mg/kg/injection, schedule: Q01DX005 (ip), vehicle: saline + alcohol): 6 of 6 | T/C [1]: 172 and 189 % of control | survivor count [1]: 6 of 6 | survivor count (dose: 0.13 mg/kg/injection, schedule: Q01DX009 (ip), vehicle: water): 3 of 3 | T/C (dose: 0.2 mg/kg/injection, schedule: Q01DX001 (ip), vehicle: water, evaluated on day 5): 166 and 187 % of control | T/C (dose: 0.2 mg/kg/injection, schedule: Q01DX001 (ip), vehicle: water, evaluated on day 35): 166 % of control | T/C (dose: 0.2 mg/kg/injection, schedule: Q01DX001 (ip), vehicle: water, evaluated on day 45): 187 % of control | survivor count (dose: 0.2 mg/kg/injection, schedule: Q01DX005 (ip), vehicle: saline + alcohol): 4 of 6 | survivor count (dose: 0.2 mg/kg/injection, schedule: Q01DX009 (ip), vehicle: water): 6 of 6 | survivor count (dose: 0.25 mg/kg/injection, schedule: Q01DX009 (ip), vehicle: water): 3 of 3 | T/C (dose: 0.3 mg/kg/injection, schedule: Q01DX001 (ip), vehicle: water, evaluated on day 5): 192 and 201 % of control | T/C (dose: 0.3 mg/kg/injection, schedule: Q01DX001 (ip), vehicle: water, evaluated on day 35): 201 % of control | T/C (dose: 0.3 mg/kg/injection, schedule: Q01DX001 (ip), vehicle: water, evaluated on day 45): 192 % of control
